Source: US20260108546A1 (ELI LILLY AND COMPANY, priority 2024, published 2026)
Some of these results come from one statement about several compounds together.

The compounds below were run against T1, hGIP-R (Homo sapiens, UniProt P48546) (assay: Functional hGIP-R Assay (cAMP formation, HTRF)). Details: cAMP formation in HEK-293 clonal cell lines expressing hGIP-R; 30 min at 37° C.; 0.1% bovine casein; relative EC50 vs. maximal response of human GIP (1-42) OH.
T1 construct: expressed in transfected cells; host or cells: HEK-293 clonal cell lines
T1 sequence (P48546 22-466): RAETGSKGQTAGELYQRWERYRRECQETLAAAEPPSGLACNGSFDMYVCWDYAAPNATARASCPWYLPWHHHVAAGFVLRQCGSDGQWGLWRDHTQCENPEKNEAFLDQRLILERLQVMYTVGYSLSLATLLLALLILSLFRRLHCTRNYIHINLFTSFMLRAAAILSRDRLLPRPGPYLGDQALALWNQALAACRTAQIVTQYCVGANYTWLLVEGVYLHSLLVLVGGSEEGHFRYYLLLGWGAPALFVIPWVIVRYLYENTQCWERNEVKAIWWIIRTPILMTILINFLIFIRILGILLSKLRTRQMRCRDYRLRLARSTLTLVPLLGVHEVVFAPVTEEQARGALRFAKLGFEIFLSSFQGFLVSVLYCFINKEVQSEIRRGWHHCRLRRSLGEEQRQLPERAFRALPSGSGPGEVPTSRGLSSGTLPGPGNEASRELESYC
Type: cell-based
How it was run: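 Relative EC50 and Emax came from four-parameter logistic fits of cAMP as a percent of the human GIP (1-42) OH maximal response. The cAMP was measured by competitive HTRF after 30 min, 37 °C compound exposure of hGIP-R HEK-293 clones in IBMX (250 μM)-containing medium.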

Structure (SMILES) | EC50 [nM]
Cc1c(-c2cc(C(F)(F)F)nn2CC(C)(C)NC(=O)[C@@H](Cc2cnn(C(F)F)c2)N2CC[C@@]3(C[C@@H]3c3ccc(-c4cnc5nn(C)cc5c4)cc3)C2=O)cn(C)c(=O)c1C#N [Example 128, (R)-N-(1-(5-(5-Cyano-1,4-dimethyl-6-oxo-1,6-dihydropyridin-3-yl)-3-(trifluoromethyl)-1H-pyrazol-1-yl)-2-methylpropan-2-yl)-3-(1-(difluoromethyl)-1H-pyrazol-4-yl)-2-((1R,3R)-1-(4-(2-methyl-2H-pyrazolo[3,4-b]pyridin-5-yl)phenyl)-4-oxo-5-azaspiro[2.4]heptan-5-yl)propanamide] | ≤ 300
Cn1cc(C[C@@H](NC(=O)[C@H]2C[C@@H]2c2ccc(-c3cnc4nn(C)cc4c3)cc2)C(=O)NC(C)(C)Cn2nc(C(F)(F)F)cc2C2CCC2)cn1 [Example 51, (1S,2S)-N—((R)-1-((1-(5-Cyclobutyl-3-(trifluoromethyl)-1H-pyrazol-1-yl)-2-methylpropan-2-yl)amino)-3-(1-methyl-1H-pyrazol-4-yl)-1-oxopropan-2-yl)-2-(4-(2-methyl-2H-pyrazolo[3,4-b]pyridin-5-yl)phenyl)cyclopropane-1-carboxamide] | ≤ 300
Cn1cc(C[C@@H](NC(=O)[C@H]2C[C@@H]2c2ccc(-c3cnc4nn(C)cc4c3)cc2)C(=O)NC(C)(C)Cn2nc(C(F)(F)F)cc2C2CC2)cn1 [Example 21, (1S,2S)-N-((R)-1-((1-(5-Cyclopropyl-3-(trifluoromethyl)-1H-pyrazol-1-yl)-2-methylpropan-2-yl)amino)-3-(1-methyl-1H-pyrazol-4-yl)-1-oxopropan-2-yl)-2-(4-(2-methyl-2H-pyrazolo [3,4-b]pyridin-5-yl)phenyl) cyclopropane-1-carboxamide] | ≤ 300
CC(C)(Cc1ccc(F)cc1)NC(=O)[C@@H](Cc1cnc2ncccn12)NC(=O)[C@H]1C[C@@H]1c1ccc(NC(=O)C2CC(F)(F)C2)cc1 [Example 48, 3,3-Difluoro-N-(4-((1S,2S)-2-(((R)-1-((1-(4-fluorophenyl)-2-methylpropan-2-yl)amino)-3-(imidazo[1,2-a]pyrimidin-3-yl)-1-oxopropan-2-yl)carbamoyl)cyclopropyl)phenyl)cyclobutane-1-carboxamide] | ≤ 300
Cn1cc(C[C@@H](NC(=O)[C@H]2C[C@@H]2c2ccc(-c3cnc4nn(C)cc4c3)cc2)C(=O)NC(C)(C)Cn2nc(C(F)(F)F)cc2-c2n[nH]cc2F)cn1 [Example 14, (1S,2S)-N-((R)-1-((1-(4-Fluoro-5′-(trifluoromethyl)-1H,2′H-[3,3′-bipyrazol]-2′-yl)-2-methylpropan-2-yl)amino)-3-(1-methyl-1H-pyrazol-4-yl)-1-oxopropan-2-yl)-2-(4-(2-methyl-2H-pyrazolo[3,4-b]pyridin-5-yl)phenyl) cyclopropane-1-carboxamide] | ≤ 300
CN1CCC(n2cc(C(F)(F)F)nc2CC(C)(C)NC(=O)[C@@H](Cc2cnn(C(F)F)c2)N2CC[C@@]3(C[C@@H]3c3ccc(-c4cnc5nc(C6CC6)cn5c4)cc3Cl)C2=O)C1=O (single isomer, unassigned) [Example 146] | ≤ 300
CN(C(=O)[C@H]1C[C@@H]1c1ccc(-c2cnc3nn(C)cc3c2)cc1)[C@H](Cc1cnn(C)c1)C(=O)NC(C)(C)Cn1nc(C(F)(F)F)cc1-c1cn[nH]n1 [Example 70, (1S,2S)-N-((R)-1-((1-(5-(2H-1,2,3-Triazol-4-yl)-3-(trifluoromethyl)-1H-pyrazol-1-yl)-2-methylpropan-2-yl)amino)-3-(1-methyl-1H-pyrazol-4-yl)-1-oxopropan-2-yl)-N-methyl-2-(4-(2-methyl-2H-pyrazolo [3,4-b]pyridin-5-yl)phenyl)cyclopropane-1-carboxamide] | ≤ 300
Cn1cc(C[C@H](C(=O)NC(C)(C)Cn2nc(C(F)(F)F)cc2-c2cn[nH]n2)N2CC[C@@]3(C[C@@H]3c3ccc(-c4cnc5nn(C)cc5c4)cc3)C2=O)cn1 [Example 95, (R)—N-(1-(5-(2H-1,2,3-Triazol-4-yl)-3-(trifluoromethyl)-1H-pyrazol-1-yl)-2-methylpropan-2-yl)-3-(1-methyl-1H-pyrazol-4-yl)-2-((1R,3R)-1-(4-(2-methyl-2H-pyrazolo[3,4-b]pyridin-5-yl)phenyl)-4-oxo-5-azaspiro[2.4]heptan-5-yl)propanamide] | ≤ 300
Cn1cc2cc(-c3ccc([C@H]4C[C@@]45CCN([C@H](Cc4cnn(C(F)F)c4)C(=O)NC(C)(C)Cn4nc(C(F)(F)F)cc4-c4ccc(=O)n(CC(F)(F)F)c4)C5=O)cc3)cnc2n1 [Example 125, (R)-3-(1-(Difluoromethyl)-1H-pyrazol-4-yl)-N-(2-methyl-1-(5-(6-oxo-1-(2,2,2-trifluoroethyl)-1,6-dihydropyridin-3-yl)-3-(trifluoromethyl)-1H-pyrazol-1-yl)propan-2-yl)-2-((1R,3R)-1-(4-(2-methyl-2H-pyrazolo[3,4-b]pyridin-5-yl)phenyl)-4-oxo-5-azaspiro[2.4]heptan-5-yl)propanamide] | ≤ 300
Cn1cc2cc(-c3ccc([C@H]4C[C@@]45CCN([C@H](Cc4cnn(C(F)F)c4)C(=O)NC(C)(C)Cn4nc(C(F)(F)F)cc4-c4ccc(C#N)nc4)C5=O)cc3)cnc2n1 [Example 143, (R)-N-(1-(5-(6-Cyanopyridin-3-yl)-3-(trifluoro-methyl)-1H-pyrazol-1-yl)-2-methylpropan-2-yl)-3-(1-(difluoro-methyl)-1H-pyrazol-4-yl)-2-((1R,3R)-1-(4-(2-methyl-2H-pyrazolo[3,4-b]pyridin-5-yl)phenyl)-4-oxo-5-azaspiro[2.4]heptan-5-yl)propanamide] | ≤ 300
Cn1cc2cc(-c3ccc([C@H]4C[C@@]45CCN([C@H](Cc4cnn(C(F)F)c4)C(=O)NC(C)(C)Cn4nc(C(F)(F)F)cc4-c4ccc(=O)n(C)c4)C5=O)cc3)cnc2n1 [Example 63, (R)-3-(1-(Difluoromethyl)-1H-pyrazol-4-yl)-N-(2-methyl-1-(5-(1-methyl-6-oxo-1,6-dihydropyridin-3-yl)-3-(trifluoromethyl)-1H-pyrazol-1-yl)propan-2-yl)-2-((1R,3R)-1-(4-(2-methyl-2H-pyrazolo[3,4-b]pyridin-5-yl)phenyl)-4-oxo-5-azaspiro[2.4]heptan-5-yl)propanamide] | ≤ 300
Cn1cc(C[C@@H](NC(=O)C2CC2c2ccc(-c3cnc4nn(C)cc4c3)s2)C(=O)NC(C)(C)Cn2nc(C(F)(F)F)cc2-c2ccc(=O)n(C)c2)cn1 (single isomer, unassigned; isomer 2) [Example 60] | ≤ 300
Cc1cn2cc(-c3ccc([C@H]4C[C@@]45CCN([C@H](Cc4cnn(C(F)F)c4)C(=O)NC(C)(C)Cn4nc(C(F)(F)F)cc4-c4ccc(=O)n(COP(=O)(O)O)n4)C5=O)c(F)c3)cnc2n1 [Example 151, (3-(1-(2-((R)-3-(1-(Difluoromethyl)-1H-pyrazol-4-yl)-2-((1S,3R)-1-(2-fluoro-4-(2-methylimidazo[1,2-a]pyrimidin-6-yl)phenyl)-4-oxo-5-azaspiro[2.4]heptan-5-yl)propanamido)-2-methylpropyl)-3-(trifluoromethyl)-1H-pyrazol-5-yl)-6-oxopyridazin-1 (6H)-yl)methyl dihydrogen phosphate] | ≤ 300
CCc1cn2cc(-c3ccc([C@H]4C[C@@H]4C(=O)N[C@H](Cc4cnc5ncccn45)C(=O)NC(C)(C)Cn4cc(C(F)(F)F)cn4)cc3)cnc2n1 [Example 82, (1S,2S)-2-(4-(2-Ethylimidazo[1,2-a]pyrimidin-6-yl)phenyl)-N-((R)-3-(imidazo[1,2-a]pyrimidin-3-yl)-1-((2-methyl-1-(4-(trifluoromethyl)-1H-pyrazol-1-yl)propan-2-yl)amino)-1-oxopropan-2-yl)cyclopropane-1-carboxamide] | ≤ 300
[2H]C([2H])([2H])n1cc(C[C@H](C(=O)NC(C)(C)Cn2nc(C(F)(F)F)cc2-c2ccc(C(C)(C)O)nc2)N2CC[C@@]3(C[C@@H]3c3ccc(-c4cnc5nn(C6CC6)cc5c4)nc3C)C2=O)cn1 [Example 190, (R)-2-((1R,3R)-1-(6-(2-cyclopropyl-2H-pyrazolo[3,4-b]pyridin-5-yl)-2-methylpyridin-3-yl)-4-oxo-5-azaspiro[2.4]heptan-5-yl)-N-(1-(5-(6-(2-hydroxypropan-2-yl)pyridin-3-yl)-3-(trifluoromethyl)-1H-pyrazol-1-yl)-2-methylpropan-2-yl)-3-(1-(methyl-d3)-1H-pyrazol-4-yl)propanamide] | ≤ 300
Cn1cc(C[C@@H](NC(=O)[C@H]2C[C@@H]2c2ccc(-c3cnc4nn(C)cc4c3)cc2)C(=O)NC(C)(C)Cn2nc(C(F)(F)F)cc2-c2cccn(C)c2=O)cn1 [Example 58, (1S,2S)-N-((R)-1-((2-Methyl-1-(5-(1-methyl-2-oxo-1,2-dihydropyridin-3-yl)-3-(trifluoromethyl)-1H-pyrazol-1-yl)propan-2-yl)amino)-3-(1-methyl-1H-pyrazol-4-yl)-1-oxopropan-2-yl)-2-(4-(2-methyl-2H-pyrazolo[3,4-b]pyridin-5-yl)phenyl) cyclopropane-1-carboxamide] | ≤ 300
